This assay has as its system L1210 leukemia ip in BDF1 mice, survival T/C. Nature of the assay: NCI In Vivo Anticancer Drug Screen. Data for tumor model L1210 Leukemia (intraperitoneal) in B6D2F1 (BDF1) mice. To be noted: T/C endpoint: mean survival time, higher T/C = longer survival.
Setting [1] is: dose: 100.0 mg/kg/injection, schedule: Q04DX002 (ip), vehicle: saline with Tween-80.
[2] abbreviates: dose: 200.0 mg/kg/injection, schedule: Q04DX002 (ip), vehicle: saline with Tween-80.
Setting [3] is: dose: 400.0 mg/kg/injection, schedule: Q04DX002 (ip), vehicle: saline with Tween-80.
The mark [4] stands for this setting: dose: 100.0 mg/kg/injection, schedule: Q01DX001 (ip), vehicle: Klucel (hydroxypropylcellulose) (HPC).
[5] abbreviates: dose: 200.0 mg/kg/injection, schedule: Q01DX001 (ip), vehicle: Klucel (hydroxypropylcellulose) (HPC).

The list shows only some results of the screen, not a fair sample: it gathers some chemical classes. Other doses and runs of a compound may be missing. T/C: endpoint of the treated group in % of that of the vehicle group. Some entries give survivors of the animals treated and no T/C: the source holds a T/C of zero for them, seemingly a mark for toxic or unscored doses. Some doses without a T/C left all or most animals alive at the check, yet need not have been tolerated: survival well below the control is almost never listed, so the zero probably covers shortened survival too. Counts of survivors are from the toxicity check (mostly the fifth day) where no day follows; animals may have died later. Schedule codes are those of the source, taken here to give the interval after Q, in days (D) or hours (H), and the number of doses after X. Some schedules carry Z or #; the key to these is not given. Where survival is the endpoint, the PubChem record calls one and a half times the control and up active, and a quarter to a half above the control has no call in these data; cut-offs in other NCI protocols can differ. Some T/C values are marked as having no survivor count here; that says nothing about deaths at the dose. Some T/C values are followed by the survivors on the day toxicity was checked, most often the fifth; without a count or a note in brackets, all were alive then.

For `[N-]=[N+]=Nc1ccc([N+](=O)[O-])c(C(=O)O)c1`, the T/C is, setting by setting: under setting [1], 88 % of control; under setting [2], 95 % of control; under setting [3], 98 % of control.

Regarding `N#CSc1ccc([N+](=O)[O-])cc1[N+](=O)[O-]`, the T/C is, setting by setting: (dose: 100.0 mg/kg/injection, schedule: Q04DX003 (ip), vehicle: saline) 95 % of control; (dose: 400.0 mg/kg/injection, schedule: Q04DX003 (ip), vehicle: saline) 95 % of control. Further, for the setting “dose: 200.0 mg/kg/injection, schedule: Q04DX003 (ip), vehicle: saline”, the survivor count is 5 of 6.

Regarding `CC(=N\N=C(/N)N[N+](=O)[O-])/C(C)=N/N=C(\N)N[N+](=O)[O-]`, the T/C (dose: 62.5 mg/kg/injection, schedule: Q04DX003 (ip), vehicle: Klucel (hydroxypropylcellulose) (HPC)) is 92 % of control; the T/C (dose: 125.0 mg/kg/injection, schedule: Q04DX003 (ip), vehicle: Klucel (hydroxypropylcellulose) (HPC)) is 86 % of control; the T/C (dose: 250.0 mg/kg/injection, schedule: Q04DX003 (ip), vehicle: Klucel (hydroxypropylcellulose) (HPC)) was 91 % of control.

With `CCOP(OCC)c1cccs1`, the T/C is 100 % of control under setting [1], 100 % of control under setting [2] and 103 % of control under setting [3].

For the compound `F[P-](F)(F)(F)(F)F.c1ccc([P+]2(c3ccccc3)CCc3ccccc3C2)cc1`, the survivor count reads like this: (dose: 25.0 mg/kg/injection, schedule: Q04DX003 (ip), vehicle: saline with Tween-80) 0 of 3; (dose: 50.0 mg/kg/injection, schedule: Q04DX003 (ip), vehicle: saline with Tween-80) 0 of 3; (dose: 100.0 mg/kg/injection, schedule: Q04DX003 (ip), vehicle: saline with Tween-80) 0 of 3.

`O=NN1CCN/C1=N\[N+](=O)[O-]`: the T/C is, setting by setting: (dose: 20.0 mg/kg/injection, schedule: Q01DX Z (ip), vehicle: methylcellulose (MC)) 112 % of control; (dose: 40.0 mg/kg/injection, schedule: Q01DX Z (ip), vehicle: methylcellulose (MC)) 123 % of control; (dose: 80.0 mg/kg/injection, schedule: Q01DX Z (ip), vehicle: methylcellulose (MC)) 135 % of control; under setting [4], 103 % of control; (dose: 160.0 mg/kg/injection, schedule: Q01DX Z (ip), vehicle: methylcellulose (MC)) 107 % of control [4 of 6 alive]; under setting [5], 114 % of control. Also, for the setting “dose: 400.0 mg/kg/injection, schedule: Q01DX001 (ip), vehicle: Klucel (hydroxypropylcellulose) (HPC)”, the T/C was 113 % of control. The survivor count (dose: 320.0 mg/kg/injection, schedule: Q01DX Z (ip), vehicle: methylcellulose (MC)) is reported as 0 of 6.

For the compound `CC1(C)CC(OP(=O)(Cl)Cl)CC(C)(C)N1O`, the T/C (dose: 100.0 mg/kg/injection, schedule: Q04DX002 (ip), vehicle: water) was 104 % of control and the T/C (dose: 200.0 mg/kg/injection, schedule: Q04DX002 (ip), vehicle: water) was 101 % of control [2 of 3 alive]. The survivor count (dose: 400.0 mg/kg/injection, schedule: Q04DX002 (ip), vehicle: water) was 0 of 3.

`CC(C)(C)C1COP(C)(=S)OC1` (centres undefined): the T/C is, setting by setting: (dose: 3.0 mg/kg/injection, schedule: Q01DX009 (ip), vehicle: Klucel (hydroxypropylcellulose) (HPC)) 102 % of control [survivor count not shown]; (dose: 3.0 mg/kg/injection, schedule: Q04DX003 (ip), vehicle: Klucel (hydroxypropylcellulose) (HPC)) 100 % of control [survivor count not shown]; (dose: 6.0 mg/kg/injection, schedule: Q01DX009 (ip), vehicle: Klucel (hydroxypropylcellulose) (HPC)) 101 % of control [survivor count not shown]; (dose: 6.0 mg/kg/injection, schedule: Q04DX003 (ip), vehicle: Klucel (hydroxypropylcellulose) (HPC)) 101 % of control [survivor count not shown]; (dose: 12.0 mg/kg/injection, schedule: Q01DX009 (ip), vehicle: Klucel (hydroxypropylcellulose) (HPC)) 104 % of control [survivor count not shown]; (dose: 12.0 mg/kg/injection, schedule: Q04DX003 (ip), vehicle: Klucel (hydroxypropylcellulose) (HPC)) 95 % of control [survivor count not shown]. Also, where the note is “dose: 12.5 mg/kg/injection, schedule: Q04DX003 (ip), vehicle: Klucel (hydroxypropylcellulose) (HPC)”, the T/C was 106 % of control [survivor count not shown].

As to `CN1CCOS(=O)(=O)O1`, the T/C is 92 % of control (dose: 50.0 mg/kg/injection, schedule: Q01DX009 (ip), vehicle: saline); 92 % of control (dose: 100.0 mg/kg/injection, schedule: Q01DX009 (ip), vehicle: saline); 92 % of control (dose: 200.0 mg/kg/injection, schedule: Q01DX009 (ip), vehicle: saline).

Regarding `CC(C)(N)CO[P+]([O-])=NC12CC3CC(CC(C3)C1)C2` (centres undefined), the T/C reads like this: (dose: 50.0 mg/kg/injection, schedule: Q01DX001 (ip), vehicle: Klucel (hydroxypropylcellulose) (HPC)) 100 % of control; under setting [4], 95 % of control; under setting [5], 95 % of control.

The record behind these values is PubChem BioAssay AID248 (DTP/NCI, 2004).
